Data as given in PubChem BioAssay AID1508588 (Peter MacCallum Cancer Centre, 2020).

- Assay: 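Knock-downs boosting vemurafenib effects on melanoma cell growth or lactate release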 (primary screen)
- Cell system: human WM266.4 melanoma cells (BRAF V600 mutant)
- Reagents: siRNA pool against human genes, 40 nM
- Timing: 96 h from transfection to read-out
- Conditions: vemurafenib 300 nM (about IC25), added 48 h after transfection, for 48 h; comparison arm got DMSO vehicle only
- Detection: 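Cell gain (DAPI nuclei at end minus before drug, mean of two replicates) and medium lactate by absorbance per cell, both as ratio to non-targeting siRNA, also grouped into fold-change classes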
- Direction: cell gain with vemurafenib: higher = more cell gain than with non-targeting siRNA; lactate per cell with vemurafenib: higher = more lactate made per cell
- Active means: 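Enhancement is called by pairing each knock-down's vehicle-arm and drug-arm fold-change classes for viability or glycolysis; which class combinations qualify is not given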
- Meaning of the calls: active = enhances vemurafenib effect; inactive = no enhancement seen
The deposit covers about 18,000 reagents; shown is an unselected part. Over the whole deposit, 790 (4.4%) are marked active. 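Calls rest on a combination of fold-change classes in drug and vehicle arms, not all shown here.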

target gene	cell gain with vemurafenib	lactate per cell with vemurafenib	call
HCN2	0.46	1.7	inactive
SPIB (Spi-B transcription factor)	-0.05	3.39	inactive
HSPE1 (heat shock protein family E (Hsp10) member 1)	0.72	1.12	inactive
LOC400576 (retired record)	0.9	0.88	inactive
GATA6 (GATA binding protein 6)	0.35	0.6	inactive
NANOS1 (nanos C2HC-type zinc finger 1)	0.18	0.5	inactive
USP3 (ubiquitin specific peptidase 3)	0.76	0.54	inactive
APTX (aprataxin)	0.61	0.61	active
DYNC1I2 (dynein cytoplasmic 1 intermediate chain 2)	0.59	0.64	inactive
AMBRA1 (autophagy and beclin 1 regulator 1)	0.24	1.9	inactive
GOLGB1 (golgin B1)	0.61	0.5	inactive
TDRD10 (tudor domain containing 10)	0.92	0.35	inactive
CHUK	0.93	0.82	inactive
ZNF23 (zinc finger protein 23)	0.72	1.02	inactive
ADAMTS20 (ADAM metallopeptidase with thrombospondin type 1 motif 20)	0.89	0.5	inactive
PSMB3 (proteasome 20S subunit beta 3)	0.08	1.9	inactive
HECTD2 (HECT domain E3 ubiquitin protein ligase 2)	0.93	0.44	active
PTN (pleiotrophin)	0.72	0.82	inactive
PIAS1 (protein inhibitor of activated STAT 1)	0.63	1.25	inactive
CNDP2 (carnosine dipeptidase 2)	0.8	0.54	inactive
HLA-DQB1 (major histocompatibility complex, class II, DQ beta 1)	0.45	0.64	inactive
TJP3 (tight junction protein 3)	0.28	0.54	inactive
PISD (phosphatidylserine decarboxylase)	0.2	1.88	inactive
AKR1C1 (aldo-keto reductase family 1 member C1)	0.7	0.28	active
LBX1 (ladybird homeobox 1)	0.62	1.56	inactive
MPI (mannose phosphate isomerase)	0.61	0.87	inactive
LEO1 (LEO1 component of Paf1/RNA polymerase II complex)	0.65	0.98	inactive
TINF2 (TERF1 interacting nuclear factor 2)	-0.02	2.02	inactive
NFATC3 (nuclear factor of activated T cells 3)	1.16	0.4	inactive
ZNF101 (zinc finger protein 101)	0.82	0.97	inactive
SLC11A1	0.5	0.89	inactive
GLYATL2 (glycine-N-acyltransferase like 2)	0.61	0.74	inactive
ZNF217 (zinc finger protein 217)	0.71	0.9	inactive
DONSON (DNA replication fork stabilization factor DONSON)	-0.03	1.93	inactive
